Assay results published in patent publication US20260014210A1, “SYMBIOTIC BACTERIUM IN HUMANS FOR PROMOTING HAIR GROWTH AND USE THEREOF” (priority 2022, published 2026).
For at least one compound, name, drawing or mass did not settle the structure.

What was measured:
[1] = tested on: ShC4 strain; test: ShC4 antibiotic sensitivity test (antibiotic sensitivity tablets); assay type: cell-based, Staphylococcus hominis; conditions: summary of Table 1
[2] = tested on: Raw 264.7 cells (murine-derived macrophages); test: Induction of macrophage M2 polarization, RT-qPCR of Arg1 and Mrc1; assay type: cell-based, mouse; conditions: live ShC4 MOI=10 for 4 h; metabolites 10 mg/mL, minoxidil 50 µg/mL for 24 h
[3] = tested on: cyclophosphamide induced balding C57BL/6N mice; test: Cyclophosphamide induced baldness model in mice; assay type: in vivo, mouse; conditions: ShC4 1E9 CFU or 5% minoxidil, dorsal application, cyclophosphamide 150 mg/kg i.p.
[4] = tested on: C57BL/6N male mice with shaved hair; test: Promoting effect of ShC4 strain on mouse hair growth (shaved back); assay type: in vivo; conditions: Day12 after modeling; dorsal application every 2 days; ShC4 1E6 (1×10^6 cfu/mouse) or 5% minoxidil; vs normal saline control

Structure (SMILES)	sensitivity of ShC4 strain to the antibiotic (in words) [1]	M2 polarization of macrophages [2]	hair coverage rate vs solvent control group (back photographs, scores) ([3]; D7)	hair coverage rate vs solvent control group (microscopic photographs) ([3]; D7)	hair coverage vs solvent control group (back photographs, scores) ([3]; D10)	hair coverage vs solvent control group (microscopic photographs) ([3]; D10)	hair coverage area (or ratio) [4]
CN(C)c1ccc(O)c2c1C[C@H]1C[C@H]3[C@H](N(C)C)C(O)=C(C(N)=O)C(=O)[C@@]3(O)C(O)=C1C2=O [minocycline]	sensitive	–	–	–	–	–	–
Nc1cc(N2CCCCC2)nc(N)[n+]1[O-] [minoxidil]	–	does not have this function	no significant change	no significant change	significant increase	significant increase	promoting effect
CN(C)[C@@H]1C(O)=C(C(N)=O)C(=O)[C@@]2(O)C(O)=C3C(=O)c4c(O)cccc4[C@@](C)(O)[C@H]3C[C@@H]12 [tetracycline]	sensitive	–	–	–	–	–	–
